The assay concerns the target mature form of D. discoideum frataxin (DdFXN) (Dictyostelium discoideum) (UniProt Q54C45). Nature of the assay: SEC; SEC-HPLC on a Superose 6 column under native conditions; 40 µM DdFXN, 50 µL injected; 20 mM Tris-HCl, 100 mM NaCl, 1 mM EDTA, pH 7.0; room temperature (~25 °C); 0.5 mL/min; mass inferred from a calibration with globular standards; samples kept at -70 °C or for 30 days at 4 °C gave similar results; both purified. In general terms: Size exclusion chromatography separates by hydrodynamic size, large species first.

No constants are given. Whether binding was seen depends on the method and setting.

B1: mature form of D. discoideum frataxin (DdFXN) (protein, UniProt Q54C45 73-193)
chain: STINNNTKPISDVNLFHDIVDEEFELFVDRLEILSEANTCEGFEVEGNDGVLTIIVGNKGTYVINKQTPNRQIWWSSPLSGPKRFDYDSVEKRWVDNRDGTPLRQLLNSEINTLCKYDMEI
Consider B1, for which the binding entry was “no binding (tested: 40 µM)”.

Values taken from article PMC7554988.
